Laboratory results taken from patent publication US12263479B2, “Array microfluidic chip and method of antibiotic susceptibility testing” (MEDFLUID CO., LTD., priority 2021, dated 2025).
≈ marks a conversion by molar mass, not a printed value.

System: S. aureus ATCC29213
Test: antibiotic susceptibility testing on the array microfluidic chip (redox indicator discoloration)
Format: cell-based
Details: Staphylococcus aureus, ATCC29213, read-out: minimum inhibitory concentration
Source text: In the present experiment, the array microfluidic chip of the present disclosure is used to perform the antibiotic susceptibility testing on Escherichia coli ATCC25922 (“E. coli ATCC25922” hereafter) and Staphylococcus aureus ATCC29213 (“S. aureus ATCC29213” hereafter) to three antibiotics, namely Amikacin, Gentamicin and Vancomycin.
In the experiment, the dried powders of Amikacin, Gentamicin or Vancomycin are respectively placed in different reaction wells of the array microfluidic chip with different contents, and then the array microfluidic chip is sealed and keeps refrigerated. Next, redox indicators with proper amounts are respectively added to the bacteria-containing mediums including E. coli ATCC25922 or S. aureus ATCC29213, and the bacteria-containing mediums are transported to different reaction wells of different array microfluidic chips and then mixed with the antibiotic powders with different contents thereof so as to form the reaction solutions including different concentrations of antibiotics.
Next, the array microfluidic chips are placed in the incubator and cultured at 37° C., and the antibiotic susceptibilities of E. coli ATCC25922 and S. aureus ATCC29213 to Amikacin, Gentamicin and Vancomycin are further assessed based on the discoloration of the reaction solutions. […]

## CN[C@H](CC(C)C)C(=O)N[C@H]1C(=O)N[C@@H](CC(N)=O)C(=O)N[C@H]2C(=O)N[C@H]3C(=O)N[C@H](C(=O)N[C@H](C(=O)O)c4cc(O)cc(O)c4-c4cc3ccc4O)[C@H](O)c3ccc(c(Cl)c3)Oc3cc2cc(c3O[C@@H]2O[C@H](CO)[C@@H](O)[C@H](O)[C@H]2O[C@H]2C[C@](C)(N)[C@H](O)[C@H](C)O2)Oc2ccc(cc2Cl)[C@H]1O [Vancomycin]
  MIC: 0.5 µg/mL (≈ 0.345 µM)
